Drawing on article PMC9950139, this text covers binding for three substances.

Chains of the proteins cited; added tags and fusions are not shown.
UniProt Q5IBH7: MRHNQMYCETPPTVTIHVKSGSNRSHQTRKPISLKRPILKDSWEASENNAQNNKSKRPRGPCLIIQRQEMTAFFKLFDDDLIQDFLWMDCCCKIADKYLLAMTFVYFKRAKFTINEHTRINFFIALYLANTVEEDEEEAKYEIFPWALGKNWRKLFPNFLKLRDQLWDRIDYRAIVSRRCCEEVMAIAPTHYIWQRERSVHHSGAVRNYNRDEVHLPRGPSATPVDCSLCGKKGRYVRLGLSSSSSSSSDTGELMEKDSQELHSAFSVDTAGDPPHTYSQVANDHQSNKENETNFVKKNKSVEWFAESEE
UniProt Q5MJ70: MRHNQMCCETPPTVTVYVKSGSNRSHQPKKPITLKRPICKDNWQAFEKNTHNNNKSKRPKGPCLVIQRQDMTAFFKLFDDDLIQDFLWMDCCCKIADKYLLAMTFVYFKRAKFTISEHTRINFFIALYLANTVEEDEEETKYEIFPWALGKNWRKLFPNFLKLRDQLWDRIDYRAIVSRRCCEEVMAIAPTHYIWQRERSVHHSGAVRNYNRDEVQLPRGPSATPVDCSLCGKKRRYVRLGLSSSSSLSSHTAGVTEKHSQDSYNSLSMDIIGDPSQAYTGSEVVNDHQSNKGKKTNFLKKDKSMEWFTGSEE
UniProt P23804: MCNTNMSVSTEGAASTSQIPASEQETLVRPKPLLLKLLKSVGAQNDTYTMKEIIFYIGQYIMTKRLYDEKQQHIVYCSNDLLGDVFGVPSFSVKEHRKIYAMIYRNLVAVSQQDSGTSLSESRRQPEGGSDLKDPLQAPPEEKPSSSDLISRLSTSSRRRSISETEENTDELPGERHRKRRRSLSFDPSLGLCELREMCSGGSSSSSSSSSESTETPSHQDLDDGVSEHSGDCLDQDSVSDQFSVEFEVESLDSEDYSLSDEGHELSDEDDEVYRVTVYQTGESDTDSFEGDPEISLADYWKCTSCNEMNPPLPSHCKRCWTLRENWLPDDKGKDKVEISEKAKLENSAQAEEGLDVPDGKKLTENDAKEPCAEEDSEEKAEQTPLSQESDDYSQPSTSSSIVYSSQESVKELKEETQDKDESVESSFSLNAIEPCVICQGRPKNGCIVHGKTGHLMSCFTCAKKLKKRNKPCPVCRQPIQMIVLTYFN
UniProt Q00987: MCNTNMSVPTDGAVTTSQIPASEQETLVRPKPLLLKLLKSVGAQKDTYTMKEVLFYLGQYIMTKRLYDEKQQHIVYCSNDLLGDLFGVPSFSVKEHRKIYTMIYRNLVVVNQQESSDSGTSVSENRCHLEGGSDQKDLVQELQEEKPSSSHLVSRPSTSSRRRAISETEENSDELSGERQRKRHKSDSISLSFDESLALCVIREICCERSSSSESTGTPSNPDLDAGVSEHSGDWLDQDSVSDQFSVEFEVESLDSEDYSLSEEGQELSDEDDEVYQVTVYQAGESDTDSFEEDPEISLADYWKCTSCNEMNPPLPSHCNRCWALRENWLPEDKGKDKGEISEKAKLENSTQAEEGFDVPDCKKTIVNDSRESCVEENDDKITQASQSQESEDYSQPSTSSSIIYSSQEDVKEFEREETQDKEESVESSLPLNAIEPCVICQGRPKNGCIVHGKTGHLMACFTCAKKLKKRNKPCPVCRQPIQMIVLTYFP
UniProt P46934: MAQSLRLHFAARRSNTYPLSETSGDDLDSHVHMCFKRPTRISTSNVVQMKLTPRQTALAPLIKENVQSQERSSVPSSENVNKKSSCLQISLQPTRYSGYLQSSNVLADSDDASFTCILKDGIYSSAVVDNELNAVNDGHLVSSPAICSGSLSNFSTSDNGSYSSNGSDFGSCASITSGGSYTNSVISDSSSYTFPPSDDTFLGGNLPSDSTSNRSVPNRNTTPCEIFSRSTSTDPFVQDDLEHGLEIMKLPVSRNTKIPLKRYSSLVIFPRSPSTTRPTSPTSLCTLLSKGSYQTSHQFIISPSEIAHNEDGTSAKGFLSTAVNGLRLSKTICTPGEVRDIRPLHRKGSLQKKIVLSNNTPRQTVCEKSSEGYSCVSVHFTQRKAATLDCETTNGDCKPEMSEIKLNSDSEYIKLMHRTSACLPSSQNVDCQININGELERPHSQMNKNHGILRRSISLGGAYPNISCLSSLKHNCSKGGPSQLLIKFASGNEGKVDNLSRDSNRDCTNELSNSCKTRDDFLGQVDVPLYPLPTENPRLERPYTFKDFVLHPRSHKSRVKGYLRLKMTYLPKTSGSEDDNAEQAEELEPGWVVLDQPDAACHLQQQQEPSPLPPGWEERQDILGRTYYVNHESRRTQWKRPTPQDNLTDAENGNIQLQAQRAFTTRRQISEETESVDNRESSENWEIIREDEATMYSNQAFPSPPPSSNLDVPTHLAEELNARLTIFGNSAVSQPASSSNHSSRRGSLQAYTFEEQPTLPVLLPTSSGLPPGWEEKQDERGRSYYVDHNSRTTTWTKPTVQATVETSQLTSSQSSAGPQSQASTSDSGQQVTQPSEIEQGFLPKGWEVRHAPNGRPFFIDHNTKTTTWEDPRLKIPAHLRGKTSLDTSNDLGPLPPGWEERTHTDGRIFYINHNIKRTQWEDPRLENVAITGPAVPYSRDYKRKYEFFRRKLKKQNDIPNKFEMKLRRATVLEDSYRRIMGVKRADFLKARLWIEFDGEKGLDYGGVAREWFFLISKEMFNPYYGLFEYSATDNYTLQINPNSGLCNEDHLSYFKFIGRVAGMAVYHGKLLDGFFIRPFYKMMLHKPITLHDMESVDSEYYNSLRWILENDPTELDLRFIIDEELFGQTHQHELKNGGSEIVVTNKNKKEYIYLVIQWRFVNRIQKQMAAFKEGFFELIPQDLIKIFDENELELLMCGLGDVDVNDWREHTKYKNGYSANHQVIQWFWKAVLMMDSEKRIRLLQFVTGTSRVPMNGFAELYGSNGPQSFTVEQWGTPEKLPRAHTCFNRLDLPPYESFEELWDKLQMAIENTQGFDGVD

The target in experiment [1] is SPY1 (endogenous) (mouse (endogenous in NSC34)) (UniProt Q5IBH7). Nature of the experiment: co-IP; endogenous proteins in hSOD1^G93A and WT cells (NSC34-derived); RIPA lysate; protein A + G magnetic beads at 4 °C.
The target of experiment [2] is SPY1-Flag (Speedy/RINGO cell cycle regulator family member A with Flag-tag) (UniProt Q5MJ70). The experiment is described as follows: co-IP; hSOD1^G93A and WT cells (NSC34-derived) co-transfected with SPY1-Flag and an HA-tagged partner for 24 h; RIPA lysate; immunoprecipitated with anti-Flag or anti-HA on protein A + G magnetic beads at 4 °C; immunoblotted with anti-HA or anti-Flag. For orientation: A western blot detects proteins with antibodies after separation by electrophoresis.

These are yes or no findings as the source states them, for the method shown. In cells and extracts the contact can be indirect. Some entries that bind do so weakly or less than the wild type.

With “MDM2 (endogenous) (from UniProt P23804 1-489)”, the binding entry in experiment [1] is listed as “binds”.

Take MDM2-HA (from UniProt Q00987 1-491): the binding result in experiment [2] is reported as “binds”.

Take NEDD4-HA (from UniProt P46934 1-1319): the binding entry in experiment [2] is recorded as “binds”.
